PubChem BioAssay AID1259315, Drosophila RNAi Screening Center, 2017
Shown is an unselected part of 418 reagents tested. 17 of all reagents (4.1%) count as active. 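z-scores average two replicate plates; all hits raised ATP and none lowered it.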 Unmarked entries are inactive. The numbers tell different reagents against one gene apart. Not given: the amount of reagent.

- Test: 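Genes that modify how toxic zinc chloride is to fly cells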 (primary screen)
- System: Drosophila S2R+ cells
- Reagents: long dsRNA against Drosophila genes
- Duration: 5 days (4 days knock-down, then 1 day with zinc)
- Conditions: zinc chloride added to 15 mM final for 1 day
- Read-out: 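ATP luminescence reflecting cell viability after 4 days of knock-down then 1 day with 15 mM zinc chloride; mean z-score of two replicate plates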
- Scale: mean ATP z-score: higher = more ATP, more cells surviving zinc
- Rule for the call: 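Hit when the mean ATP z-score exceeds 1.5 or falls below -1.5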

Target gene,reagent,mean ATP z-score
Gnptab,1,-0.31
Dci,1,-0.243
Dci,2,-0.376
Vha68-1,1,-0.142
Vha68-1,2,-0.144
Vha68-1,3,-0.274
CG31661,1,-0.109
CG31661,2,-0.369
CG7402,1,-0.127
ACC,1,0.747
ACC,2,1.01
ACC,3,0.445
Vps13,1,-0.0613
Vps13,2,-0.161
Vps13,3,-0.15
Xpc,1,-0.0492
Daao2,1,0.0217
VhaAC45,1,0.16
VhaAC45,2,0.0427
VhaAC45,3,0.0948
Ids,1,-0.449
Bace,1,-0.28
Bace,2,-0.292
Bace,3,-0.0927
Npc2g,1,0.738
Ppt1,1,-0.27
Gba1b,1,-0.119
sbm,1,-0.342
sbm,2,-0.4
Acsl,1,-0.0894
Acsl,2,-0.264
CG15534,1,-0.225
CG15534,2,-0.087
Vps36,1,-0.0588
Vps36,2,-0.231
Vps4,1,6.67 (active)
Vps4,2,2.52 (active)
Vps4,3,0.00405
Chc,1,0.345
Chc,2,-0.155
Chc,3,-0.11
Sgsh,1,0.104
CG6508,1,0.0309
Cln7,1,-0.193
Cln7,2,-0.463
CG14767,1,0.13
CG14767,2,-0.157
Abcd1,1,0.328
Abcd1,2,-0.138
CG15533,1,0.00315
CG15533,2,-0.347
Ctns,1,2.26 (active)
Ctns,2,1.41
Ctns,3,2.67 (active)
Gba1a,1,-0.116
Vha16-5,1,-0.259
Vha16-5,2,-0.0924
Vha16-5,3,-0.148
CG6638,1,-0.236
CG6638,2,-0.307
cm,1,0.0655
wat,1,0.362
wat,2,-0.153
CG7997,1,-0.0228
CG7997,2,-0.148
ry,1,0.106
ry,2,-0.243
ry,3,-0.209
AP-1gamma,1,0.0213
AP-1gamma,2,-0.427
Mcad,1,-0.2
Mcad,2,-0.258
Agps,1,-0.13
Agps,2,-0.356
Agps,3,-0.175
Sod1,1,-0.254
Sod1,2,-0.274
Sod1,3,-0.316
CG31926,1,-0.309
CG31926,2,-0.407
Pex14,1,-0.0682
Pex14,2,-0.36
CG7049,1,-0.199
CG7049,2,-0.313
Pex12,1,4.12 (active)
Pex12,2,-0.462
Amacr,1,-0.019
Pex13,1,-0.404
Pex13,2,-0.475
Pex13,3,-0.29
betaGlu,1,-0.361
betaGlu,2,-0.335
betaGlu,3,-0.291
Lamp1,1,-0.312
Lamp1,2,-0.163
Lamp1,3,-0.282
Hmgcl,1,-0.0577
cathD,1,-0.063
Muc11A,1,-0.282
Pex19,1,0.116
ACOX1,1,0.307
ACOX1,2,-0.106
CG3376,1,-0.0417
CG3376,2,-0.361
Cat,1,-0.177
Cat,2,-0.262
Cat,3,-0.245
CG4586,1,-0.238
CG4586,2,0.909
Agxt,1,-0.202
Agxt,2,-0.291
